# Reference: the supplement of paper PMC9254222
# Over roughly 1,100 compounds, “Renilla luciferase signal (cell health) relative to plate median” has its median near 0.97; the highest 2% begin near 1.6. The list shows a part of the results, in another mix than the full data.
# System: HEK293T (UBE3A T485A transfected, BAR Wnt reporter)
# Experiment: Renilla luciferase signal (cell health) relative to plate median (fold (linear ratio)); higher = higher Renilla signal
# Conditions: 24 h
# Procedure, shortened: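 Using Fugene 6, HEK293T cells in white 384-well plates (4500 cells/well; DMEM, 10% FBS, 37°C, 5% CO2) were transfected with a BAR firefly luciferase Wnt reporter, TK-Renilla and an expression plasmid. After four hours, robots dosed the chemicals at 0.01–100 uM, and a Dual-Glo luciferase readout followed 24 h later. Per-plate median-centred firefly/Renilla ratios gave Wnt activity, while per-plate median-centred raw Renilla signals gave cell health. Four biological replicates were averaged.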
SMILES,Renilla luciferase signal (concentration: 0.1 uM),Renilla luciferase signal (concentration: 1 uM),Renilla luciferase signal (concentration: 10 uM),Renilla luciferase signal (concentration: 100 uM),Renilla luciferase signal (concentration: 0.01 uM)
C[C@]12C=CC3=C4CCC(=O)C=C4CC[C@H]3[C@@H]1CC[C@@H]2O [17beta-Trenbolone],1.04,1.14,1.26,0.961,–
OCCCBr [3-Bromo-1-propanol],0.865,0.896,0.988,0.976,–
CS(=O)CCCCN=C=S (stereo unspecified) [Sulforaphane],0.902,0.946,0.812,0.00245,0.847
C=CCc1ccc2c(c1)OCO2 [Safrole],0.871,0.86,0.978,1.19,–
CC(C)(C)C(O)/C(=C\c1ccc(Cl)cc1Cl)n1cncn1 (stereo unspecified) [Diniconazole],1.08,0.922,0.952,0.0497,1.01
N#Cc1ccc(N(CC(N)=O)CC(F)(F)F)cc1C(F)(F)F,1.27,1.17,1.34,1.28,–
CN(C)C(=O)Nc1cccc(C(F)(F)F)c1 [Fluometuron],–,–,–,1.74,–
"CCN(CC)CCO [N,N-Diethylethanolamine]",1.01,1.07,1.09,1.02,–
CCC[CH2][Sn]([Cl])([CH2]CCC)[CH2]CCC [Tributyltin chloride],0.598,0.574,0.235,0.0217,–
CCOP(=S)(OCC)Oc1nc(Cl)n(C(C)C)n1 [Isazofos],1.06,0.963,1.04,1.29,1.12
CCOc1ccc(C(C)(C)COCc2cccc(Oc3ccccc3)c2)cc1 [Etofenprox],1.01,1.12,0.95,1.14,–
CCCCC(O)(Cn1cncn1)c1ccc(Cl)cc1Cl (stereo unspecified) [Hexaconazole],1.25,1,1.1,0.0939,1.19
ClC1=C(Cl)C2(Cl)C3C(Cl)C(Cl)CC3C1(Cl)C2(Cl)Cl (stereo unspecified) [Chlordane],0.974,1.06,1.08,1.14,–
COP(=S)(OC)Oc1nc(Cl)c(Cl)cc1Cl [Chlorpyrifos-methyl],1.18,1.01,1.04,0.838,1.5
"Clc1cccc(Cl)c1 [1,3-Dichlorobenzene]",0.976,1.06,1.08,1.26,–
CC1C(c2ccc(Cl)cc2)SC(=O)N1C(=O)NC1CCCCC1 (stereo unspecified) [Hexythiazox],0.999,0.929,0.977,0.244,0.957
O=S(=O)([O-])C(F)(F)C(F)(F)C(F)(F)C(F)(F)C(F)(F)C(F)(F)F.[K+],1.04,0.983,1.1,0.867,–
CCCN(CCOc1c(Cl)cc(Cl)cc1Cl)C(=O)n1ccnc1 [Prochloraz],0.867,1.02,0.796,0.267,0.793
CCCCN(CCCC)N=O [N-Nitrosodibutylamine],0.861,0.896,0.975,1.2,–
O=C(NC(=O)c1cc(F)c(F)cc1Cl)Nc1cc(F)ccc1N1CCC(C(=O)O)CC1,0.8,0.813,0.797,0.641,–
CCCCSP(=O)(SCCCC)SCCCC [Tribufos],0.609,0.976,0.82,0.728,1.14
[OH][Sn]([c]1ccccc1)([c]1ccccc1)[c]1ccccc1 [Triphenyltin hydroxide],0.622,0.135,0.0103,0.0121,0.857
Oc1c(Cl)c(Cl)c(Cl)c(Cl)c1Cl [Pentachlorophenol],0.948,0.938,1.06,0.0601,–

# In a second layout: entries from further up
SMILES	Renilla luciferase signal (concentration: 0.1 uM)	Renilla luciferase signal (concentration: 1 uM)	Renilla luciferase signal (concentration: 10 uM)	Renilla luciferase signal (concentration: 100 uM)	Renilla luciferase signal (concentration: 0.01 uM)
C[C@]12C=CC3=C4CCC(=O)C=C4CC[C@H]3[C@@H]1CC[C@@H]2O [17beta-Trenbolone]	1.04	1.14	1.26	0.961	–
OCCCBr [3-Bromo-1-propanol]	0.865	0.896	0.988	0.976	–
CS(=O)CCCCN=C=S (stereo unspecified) [Sulforaphane]	0.902	0.946	0.812	0.00245	0.847
C=CCc1ccc2c(c1)OCO2 [Safrole]	0.871	0.86	0.978	1.19	–
CC(C)(C)C(O)/C(=C\c1ccc(Cl)cc1Cl)n1cncn1 (stereo unspecified) [Diniconazole]	1.08	0.922	0.952	0.0497	1.01
N#Cc1ccc(N(CC(N)=O)CC(F)(F)F)cc1C(F)(F)F	1.27	1.17	1.34	1.28	–
CN(C)C(=O)Nc1cccc(C(F)(F)F)c1 [Fluometuron]	–	–	–	1.74	–
CCN(CC)CCO [N,N-Diethylethanolamine]	1.01	1.07	1.09	1.02	–
CCC[CH2][Sn]([Cl])([CH2]CCC)[CH2]CCC [Tributyltin chloride]	0.598	0.574	0.235	0.0217	–
CCOP(=S)(OCC)Oc1nc(Cl)n(C(C)C)n1 [Isazofos]	1.06	0.963	1.04	1.29	1.12
CCOc1ccc(C(C)(C)COCc2cccc(Oc3ccccc3)c2)cc1 [Etofenprox]	1.01	1.12	0.95	1.14	–
CCCCC(O)(Cn1cncn1)c1ccc(Cl)cc1Cl (stereo unspecified) [Hexaconazole]	1.25	1	1.1	0.0939	1.19
ClC1=C(Cl)C2(Cl)C3C(Cl)C(Cl)CC3C1(Cl)C2(Cl)Cl (stereo unspecified) [Chlordane]	0.974	1.06	1.08	1.14	–
COP(=S)(OC)Oc1nc(Cl)c(Cl)cc1Cl [Chlorpyrifos-methyl]	1.18	1.01	1.04	0.838	1.5

# The results go on:

SMILES,Renilla luciferase signal (concentration: 0.1 uM),Renilla luciferase signal (concentration: 1 uM),Renilla luciferase signal (concentration: 10 uM),Renilla luciferase signal (concentration: 100 uM),Renilla luciferase signal (concentration: 0.01 uM)
"N#CC(Br)(Br)C(N)=O [2,2-Dibromo-3-nitrilopropionamide]",0.805,0.875,0.961,1.14,–
CC(=O)[O][Hg][c]1ccccc1 [Phenylmercuric acetate],0.896,0.801,0.0199,0.0298,–
C[Si](Cn1cncn1)(c1ccc(F)cc1)c1ccc(F)cc1 [Flusilazole],1.08,1.03,0.986,0.258,1.03
c1cc2c3c(cccc3c1)CC2 [Acenaphthene],1.17,1.26,1.14,1.68,–
"Nc1ccc(Cc2ccc(N)cc2)cc1 [4,4'-Methylenedianiline]",0.803,0.812,0.825,0.725,–
COC(=O)Nc1nc2ccccc2[nH]1 [Carbendazim],0.998,1.1,0.565,0.999,–
CCCCOCN(C(=O)CCl)c1c(CC)cccc1CC [Butachlor],0.813,0.902,0.865,0.895,0.877
COc1cccc(NCC(F)Cn2c3ccc(Br)cc3c3cc(Br)ccc32)c1 (stereo unspecified),0.816,0.904,1.04,1.47,1.13
CCOP(=O)(NC(C)C)Oc1ccc(SC)c(C)c1 (stereo unspecified) [Fenamiphos],1.02,0.963,1.03,0.489,0.877
[N-]=[N+]=[N-].[Na+] [Sodium azide],1.11,–,–,1.29,–
[N-]=[N+]=[N-].[Na+] [Sodium Azide],–,1.01,1.05,–,1.38
O=C(O)c1nc(Cl)ccc1Cl [Clopyralid],0.828,0.985,1,1.8,0.962
O=[As][O-].[Na+] [Sodium arsenite],0.622,0.288,0.0446,0.0136,0.746
O=[N+]([O-])c1ccc(Cl)cc1 [1-Chloro-4-nitrobenzene],0.98,0.976,0.993,1.1,–
CC(C)(O)c1cnn2c(-c3ccc(F)c(-c4c(F)cccc4C#N)c3)cnc2n1,1.15,1.22,0.763,0.628,–
CCC(C)(c1ccc(O)cc1)c1ccc(O)cc1 [Bisphenol B],0.934,0.965,0.927,0.502,–
CC(C)Oc1cc(-n2nc(C(C)(C)C)oc2=O)c(Cl)cc1Cl [Oxadiazon],1.19,0.972,1.06,0.412,1.12
COC(=O)c1c(C(F)F)nc(C(F)(F)F)c(C2=NCCS2)c1CC(C)C [Thiazopyr],1.1,0.936,1.05,1.15,0.994
CN(C)c1nc(=O)n(C2CCCCC2)c(=O)n1C [Hexazinone],0.839,0.85,0.916,1.2,0.842
Cc1cc2c3c(c1)C(c1ccccc1)=N[C@@H](NC(=O)c1ccncc1)C(=O)N3CC2,1.17,1.13,1.06,0.194,–
CCCCOC(=O)c1ccccc1C(=O)OCCCC [Dibutyl phthalate],1.04,1.02,1.03,0.11,1.02
NCCO.O=C(O)c1nc(Cl)ccc1Cl [Clopyralid-olamine],1.18,1.06,1.2,1.53,1.41
"CC(C)(C)c1cc(C(C)(C)C)c(O)c(C(C)(C)C)c1 [2,4,6-Tris(tert-butyl)phenol]",0.951,1.04,1.18,1.73,–

SMILES,Renilla luciferase signal (concentration: 0.1 uM),Renilla luciferase signal (concentration: 1 uM),Renilla luciferase signal (concentration: 10 uM),Renilla luciferase signal (concentration: 100 uM),Renilla luciferase signal (concentration: 0.01 uM)
O=C(O)C(F)(F)C(F)(F)C(F)(F)C(F)(F)C(F)(F)C(F)(F)C(F)(F)C(F)(F)F,0.913,1.01,0.971,0.134,–
N#Cc1cccnc1 [3-Pyridinecarbonitrile],1.04,0.997,0.816,1.21,–
Cc1ccccc1O [o-Cresol],0.937,0.939,1.02,1.06,–
CCN(CC)C(=O)SCc1ccc(Cl)cc1 [Thiobencarb],0.767,0.904,1.02,1.05,1.06
O=C(O)C(F)(F)C(F)(F)C(F)(F)C(F)(F)C(F)(F)C(F)(F)C(F)(F)C(F)(F)C(F)(F)F,1.12,1.1,1.12,0.714,–
CC(C)(c1ccccc1)c1ccc(O)cc1 [4-Cumylphenol],1.13,1.18,0.885,0.0488,–
CCCCCCCCCc1ccc(O)cc1 [4-Nonylphenol],0.979,0.984,0.92,0.419,–
CC(C)Oc1cccc(NC(=O)c2ccccc2C(F)(F)F)c1 [Flutolanil],0.913,0.934,0.913,1.07,0.958
O=P(O)(O)CCCl [Ethephon],0.846,0.935,1.38,1.33,1.06
O=C(Oc1ccc(Br)cc1)N1CCN2CCC1CC2,0.793,0.861,0.806,0.581,–
"ClCC(Cl)CCl [1,2,3-Trichloropropane]",0.9,0.872,0.937,1.01,–
O=NN(c1ccccc1)c1ccccc1 [N-Nitrosodiphenylamine],0.989,1.05,1.23,1.26,–
CNC(=O)ON=CC(C)(C)SC [Aldicarb],0.924,0.97,0.918,1.72,1.1
N#CSCSC#N [Methylene bis(thiocyanate)],1.16,1.12,1.2,0.00579,1.18
CCCN(CCC)N=O [N-Nitrosodipropylamine],0.934,0.91,0.961,1.04,–
O=[N+]([O-])c1ccccc1 [Nitrobenzene],0.931,0.977,0.817,0.932,–
CCNc1nc(Cl)nc(NCC)n1 [Simazine],0.87,1.01,0.994,1.18,0.975
Cc1ccc(/N=C/N(C)/C=N/c2ccc(C)cc2C)c(C)c1 [Amitraz],1.17,1.06,1.21,0.0374,1.29
Cc1sc2c(c1C)C(c1ccc(Cl)cc1)=NC(CC(=O)OC(C)(C)C)c1nnc(C)n1-2 (racemic),0.716,0.785,1.12,0.237,0.854
O=C(O)C(F)(F)C(F)(F)C(F)(F)C(F)(F)C(F)(F)C(F)(F)C(F)(F)F,0.781,0.834,0.9,1.9,0.983
C=C(C)C(=O)[O][Sn]([CH2]CCC)([CH2]CCC)[CH2]CCC [Tributyltin methacrylate],0.701,0.686,0.499,0.0265,–
